Experimental data as given in PubChem BioAssay AID504834 (National Center for Advancing Translational Sciences (NCATS), 2011).
Out of some 320,000 compounds screened, about 22,000 (6.9%) were called active. Inconclusive means that the source gave no clear call. Such entries were picked first, then a sample of the others. The call rests on the fitted dose curve; in most records, active means well fitted inhibition curve with a large enough effect; inconclusive means small, poorly fitted or top-dose-only effect, or another doubt; inactive means no such curve, though single readings can be large or run the other way. A potency beside an inconclusive call is a rough fit, not a confirmed value.

assay: Primary qHTS for delayed death inhibitors of the malarial parasite plastid, 96 hour incubation; conditions: P. falciparum luciferase reporter growth; series mostly up to 28.7 µM
Summary of the method: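 Cell-based qHTS: luciferase-tagged P. falciparum in erythrocytes (2% hematocrit, 0.05% parasitemia final) incubated with compounds for 96 hours, 37 C, 5% CO2; luciferase detection reagent then added and luminescence measured.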
Potency means the concentration at half of the fitted maximal effect.

SMILES	Potency
c1ccc2c(c1)CCc1c-2nc2ccccc2c1N1CCOCC1	inconclusive: 4.65 µM [inhibitor, partial curve]
CN(C)S(=O)(=O)c1ccc(NC(=O)CN2CCCC2c2ccc3c(c2)OCCCO3)cc1 (stereo not drawn)	inconclusive: 3.7 µM [inhibitor, partial curve, poor fit]
CC1CCc2sc(NC(=O)C3CC(Cl)=CCC3C(=O)O)c(C#N)c2C1 (stereo not drawn)	inactive
CN(C1CCCCC1)C(CNS(=O)(=O)c1ccc(Cl)cc1)c1ccccc1 (stereo not drawn)	inconclusive: 2.62 µM [inhibitor, full curve]
COC(=O)c1sc(=S)sc1C(=O)OC	inconclusive: 8.28 µM [inhibitor, partial curve, poor fit]
CC1(C)Cc2c(sc3nc(SCC(=O)N4CCOCC4)nc(N)c23)CO1	inconclusive: 18.5 µM [inhibitor, single point]
CCN(CC)Cc1ccccn1	inconclusive: 0.0033 µM [inhibitor, full curve, poor fit]
Nc1ccc(C(=O)N(CCO)CCO)cc1	inactive
Nc1nonc1-n1nnc(C(=O)N/N=C/c2ccc(Br)cc2)c1CSC1=NCCS1	inconclusive: 7.38 µM [inhibitor, partial curve, poor fit]
CC/C(=N\N1CCN(C)CC1)c1c(O)[nH]c(=O)[nH]c1=O	inconclusive: 11.7 µM [inhibitor, single point]
CCc1cccc(NC(=O)Nc2cccs2)c1	inconclusive: 0.828 µM [inhibitor, full curve, poor fit]
CCN(CC(=O)Nc1ccc(OC)cc1)C(=O)CSCc1ccc(C)cc1	inconclusive: 18.5 µM [inhibitor, single point]
CCc1ccc(CNCc2ccc(F)cc2)cc1	inactive
COc1ccc(N(C(=O)CCl)C(C(=O)NC2CCCCC2)c2cccnc2)cc1 (stereo not drawn)	inconclusive: 0.465 µM [inhibitor, partial curve, poor fit]
O=C1CCc2cc(S(=O)(=O)NC(C(=O)NCc3cccnc3)c3ccccc3)ccc2N1 (stereo not drawn)	inconclusive: 7.38 µM [inhibitor, single point]
CCNS(=O)(=O)c1ccc(CCC(=O)Nc2ccc3c(c2)OCCO3)cc1	inconclusive: 18.5 µM [inhibitor, single point]
CCOC(=O)CC(NS(=O)(=O)c1ccc(OC)c(C)c1)c1cccc([N+](=O)[O-])c1 (stereo not drawn)	inconclusive: 18.5 µM [inhibitor, single point]
COc1ccccc1NS(=O)(=O)c1cccc(C(=O)NCC(c2cccs2)N2CCOCC2)c1 (stereo not drawn)	inconclusive: 4.65 µM [inhibitor, partial curve]
CCCC(=O)C1C(=O)CC(C)(C)C(c2cc(C)no2)C1=O (stereo not drawn)	active: 0.117 µM
O=C(CSc1ccc(-c2cccc([N+](=O)[O-])c2)nn1)N1CCCC1	inconclusive: 18.5 µM [inhibitor, single point]
Cc1cccnc1NC(=O)C1CCCN(S(=O)(=O)c2ccc3c(c2)oc(=O)n3C)C1 (stereo not drawn)	inactive
COC(CNS(=O)(=O)c1ccc(Cl)cc1)c1ccccc1 (stereo not drawn)	active: 13.1 µM
O=C(CSc1nc(N2CCCCC2)nc(N2CCCCC2)n1)c1ccccc1	inactive

SMILES	Potency
CCOC(=O)C1CCN(C(=O)CNS(=O)(=O)c2cccs2)CC1	inconclusive: 2.62 µM [inhibitor, full curve, poor fit]
COc1ccc(CN2CCNC(=O)C2CC(=O)N2CCCN(C(C)=O)CC2)c(OC)c1 (stereo not drawn)	inconclusive: 10.4 µM [inhibitor, partial curve, poor fit]
COc1ccc(CCNC(=O)C2CCN(S(=O)(=O)c3cccc4cccnc34)CC2)cc1OC	active: 16.5 µM
CC(C(=O)NCc1ccccc1)n1cc([N+](=O)[O-])cn1 (stereo not drawn)	inactive
COCCn1c(=NC(=O)CCS(=O)(=O)c2ccccc2)sc2cc(C)ccc21	inconclusive: 4.65 µM [inhibitor, partial curve, poor fit]
Cc1cc(N2C(=O)CCC2=O)n(-c2ccccc2)n1	active: 10.4 µM
Cc1ccc(-n2cc(C(C)(C)C)[nH]c2=S)cc1	inactive
O=C1CCC(=O)N1CCC(c1ccc(F)cc1)c1ccco1 (stereo not drawn)	inconclusive: 4.15 µM [inhibitor, partial curve]
O=C(NCc1ccc2c(c1)OCO2)c1cc(-c2ccccc2)c(N2CCOCC2)s1	inactive
C=CCn1cnc2c(c1=O)c1nc3ccccc3nc1n2-c1ccc(C)cc1	inconclusive: 1.65 µM [inhibitor, full curve, poor fit]
CC(=O)Nc1cc(NC(C)=O)c(N=Nc2ccccc2)cc1C	inactive
COc1ccccc1C(=O)NC(=O)CSc1nnc(C)s1	inactive
c1ccc(-c2nc(CSc3nnc(-c4cccs4)o3)cs2)cc1	inconclusive: 6.57 µM [inhibitor, partial curve, poor fit]
O=C(COc1ccc(S(=O)(=O)N2CCOCC2)cc1)NCc1ccco1	inconclusive: 11.7 µM [inhibitor, single point]
CC(C)(Oc1ccc(Cl)cc1)C(=O)NCCN1C(=O)S/C(=C/c2cccnc2)C1=O	inconclusive: 11.7 µM [inhibitor, single point]
N=c1oc2ccccc2cc1C(=O)Nc1cccc(F)c1	inconclusive: 5.22 µM [inhibitor, partial curve, poor fit]
CCC(=O)N1CCN(c2ccc(NC(=S)NC(=O)c3ccc(OC)c([N+](=O)[O-])c3)cc2)CC1	inconclusive: 4.15 µM [inhibitor, partial curve]
Cc1ccc(S(=O)(=O)N2CCN(CC(=O)N3CCOCC3)CC2)cc1	inactive
COc1ccc(-c2cc(C(=O)NN)n(-c3ccccc3)n2)cc1	inconclusive: 18.5 µM [inhibitor, single point]
O=[N+]([O-])c1ccc(NC(=S)N2CCc3ccccc32)cc1	inconclusive: 8.28 µM [inhibitor, partial curve, poor fit]
Cc1cc(C(=O)OCC(=O)N2CCCC2)c2ccccc2n1	inconclusive: 0.0522 µM [inhibitor, full curve, poor fit]
CCC1(c2ccccc2)NC(=O)N(CC(=O)Nc2cc(Cl)ccc2N2CCOCC2)C1=O (stereo not drawn)	inconclusive: 10.4 µM [inhibitor, partial curve]
CSc1nc(SCCN(C)C)c2c3c(sc2n1)COC(C)(C)C3	inconclusive: 18.5 µM [inhibitor, single point]

SMILES	Potency
NC(=O)CC(CC(=O)OCc1ccccc1)c1ccccc1 (stereo not drawn)	inconclusive: 18.5 µM [inhibitor, partial curve, poor fit]
COC(=O)c1ccc(CS(=O)(=O)c2ccccc2C)o1	inactive
O=C(N/N=C/c1cc2ccccc2nc1Cl)[C@H]1C[C@@H]1c1ccccc1	active: 1.65 µM
COCCNC(=O)c1ccc2c(c1)ncn2-c1cccc(C)c1	inconclusive: 4.15 µM [inhibitor, partial curve, poor fit]
CC(C)c1ccccc1NC(=O)COc1ccc(C(=O)NCCc2ccccc2)cc1	inconclusive: 14.7 µM [inhibitor, single point]
O=C(c1ccc(C(=O)N2CCCCCC2)cc1)N1CCCCCC1	inconclusive: 0.522 µM [inhibitor, full curve, poor fit]
O=C(Nc1ccc(Br)cc1)Nc1ccccc1F	inactive
O=C(O)CCCN1C(=O)/C(=C\c2ccc(-c3nc4ccccc4s3)o2)SC1=S	inconclusive: 18.5 µM [inhibitor, single point]
Cc1cc(=O)oc2c3c(cc(OCC(=O)N4CCC[C@H]4C(=O)O)c12)OC(C)(C)CC3	inconclusive: 10.4 µM [inhibitor, single point]
Cc1ccc(/C=N/NC(=O)CCSc2ccccc2)cc1	inconclusive: 18.5 µM [inhibitor, single point]
COc1ccc(CN(Cc2cccn2C)C(=O)c2cc3cc(OC)ccc3[nH]2)cc1	inconclusive: 9.28 µM [inhibitor, partial curve]
Fc1cccc(CSc2nc3ncccc3[nH]2)c1	active: 11.7 µM
CCC(=O)N1CCc2cc(S(=O)(=O)CCC(=O)NC3CCCCC3)ccc21	active: 2.62 µM
CC(C)Oc1ccc(CNC(=O)c2cc(S(=O)(=O)N3CCOCC3)cn2C)cc1	inconclusive: 7.38 µM [inhibitor, partial curve]
CC(C)(C)n1ncc2c(=O)n(Cc3ccccc3Br)cnc21	inconclusive: 8.28 µM [inhibitor, partial curve]
Cc1ccc(S(=O)(=O)N2CCCC(C(=O)N(Cc3cccs3)C3CC3)C2)cc1 (stereo not drawn)	active: 13.1 µM
Cc1cc(C)cc(NS(=O)(=O)Cc2ccccc2)c1	inconclusive: 4.65 µM [inhibitor, partial curve, poor fit]
CC(C)c1ccc(NC(=O)CN2C(=O)NC3(CCCC3)C2=O)cc1	inactive
COc1ccc(N(CC(=O)Nc2cc(C)ccc2C)S(=O)(=O)c2c(C)noc2C)cc1	inconclusive: 11.7 µM [inhibitor, single point]
O=C(O)c1cc(-c2cccnc2)nn1-c1ccccn1	inconclusive: 3.29 µM [inhibitor, full curve]
COc1c(OC)c(O)c2c(=O)cc(-c3c(O)cccc3O)oc2c1OC	inconclusive: 9.28 µM [inhibitor, partial curve]
COC(=O)c1c(NC(=O)CN(C)CC(=O)Nc2ccc(C)cc2)sc2c1CCC(C)C2 (stereo not drawn)	inconclusive: 9.28 µM [inhibitor, single point]

Individual results from above.
Value for CC1CCc2sc(NC(=O)C3CC(Cl)=CCC3C(=O)O)c(C#N)c2C1 (stereo not drawn) under Potency: inactive
Value for CCCC(=O)C1C(=O)CC(C)(C)C(c2cc(C)no2)C1=O (stereo not drawn) under Potency: active: 0.117 µM
Value for COc1ccc(-c2cc(C(=O)NN)n(-c3ccccc3)n2)cc1 under Potency: inconclusive: 18.5 µM [inhibitor, single point]
